From article PMC8467918
Construct, isoform or probe ends are uncertain for at least one entry. At least one verdict rests on a figure or table, not on a statement of the authors.

Amino acid sequences for entries named in this document (tags omitted). A change or cut given only in a name is not applied to a line headed by its entry.
UniProt Q04609: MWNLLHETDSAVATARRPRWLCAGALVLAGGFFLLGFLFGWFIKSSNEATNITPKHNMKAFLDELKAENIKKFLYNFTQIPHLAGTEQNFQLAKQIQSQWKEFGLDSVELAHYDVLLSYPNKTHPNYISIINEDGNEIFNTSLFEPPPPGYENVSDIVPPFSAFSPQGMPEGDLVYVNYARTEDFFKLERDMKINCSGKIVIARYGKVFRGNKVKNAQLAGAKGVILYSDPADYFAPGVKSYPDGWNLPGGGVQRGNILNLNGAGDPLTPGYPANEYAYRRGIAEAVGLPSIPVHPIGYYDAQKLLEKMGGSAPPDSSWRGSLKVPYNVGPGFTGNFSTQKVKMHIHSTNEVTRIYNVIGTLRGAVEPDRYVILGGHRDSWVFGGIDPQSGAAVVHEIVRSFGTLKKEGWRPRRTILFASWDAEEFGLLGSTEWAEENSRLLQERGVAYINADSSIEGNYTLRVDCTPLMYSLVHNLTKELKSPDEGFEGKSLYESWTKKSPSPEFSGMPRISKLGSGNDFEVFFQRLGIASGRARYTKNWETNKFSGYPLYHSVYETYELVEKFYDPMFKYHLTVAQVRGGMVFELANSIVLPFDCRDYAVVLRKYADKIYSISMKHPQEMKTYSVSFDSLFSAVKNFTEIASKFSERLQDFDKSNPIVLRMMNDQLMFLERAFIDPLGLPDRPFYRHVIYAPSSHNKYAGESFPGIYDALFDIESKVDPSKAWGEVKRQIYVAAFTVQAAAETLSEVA

Biological target: PSMA (prostate-specific membrane antigen) on plasma small extracellular vesicles (UniProt Q04609)
Assay: pull-down of Vibrant-DiI-labelled SEVs on aptamer beads, flow cytometry
Conditions: no-aptamer azide beads as negative control, binding to whole vesicles, not isolated PSMA; 5'-DBCO, clicked to azide magnetic beads; Bead functionalization: 1 ug SPMB in 100 uL PBS, 1 pM aptamer, 10% DMSO, RT, 3 h; native protein; single-stranded DNA

GAATTCGCGTTTTCGCTTTTGCGTTTTGGGTCATCTGCTTACGATAGCAATGCT [PSMA-Apt]
binding result: binds
